# Data published in US7737121B2, “Insulin secretion by anthocyanins and anthocyanidins” (Board of Trustees of Michigan State University, priority 2004, dated 2010).
# At least one compound was matched to its structure with a doubt left.
# System: INS-1 832/13 cells
# Experiment: Insulin secretion by INS-1 832/13 pancreatic beta cells (static secretion, insulin by RIA, normalized to cellular protein)
# Assay type: cell-based, rodent
# Conditions: 50 μg/mL compound
# Procedure: Insulin Secretion Studies. INS-1 832/13 cells (kindly provided by Dr Christopher Newgard, Duke University, NC) (18) were routinely cultured in 5% CO2/air at 37° C. in RPMI-1640 medium containing 11.1 mM glucose and supplemented with 10% FBS (Fetal Bovine Serum), 10 mM HEPES, 100 U/ml penicillin, 100 μg/ml streptomycin, 4 mM Glutamine, 1 mM sodium pyruvate, and 50 μM 2-mercaptoethanol. Cells were passed weekly after trypsin-EDTA detachment. For static secretion studies, cells were plated on 24 well plates at a density of 0.64×10^6 cells per well and grown for 24 h. The cells were then cultured for an additional 24 h in RPMI-1640 containing 4 mM glucose and the supplements described above. Cells were then incubated twice for 30 min in Krebs Ringer Bicarbonate buffer (KRBB) containing 4 mM glucose and 0.1% BSA. […] Cellular protein concentration was then determined by Lowry assay. […] The insulin secreted into the medium by the cells was determined by radioimmuno assay and normalized to total cellular protein.
# Radio Immuno Assay (RIA). […] The tubes were then centrifuged and the radioactivity was measured using a gamma counter.
# Lowry protein Assay. The amount of protein in the assay wells was determined by Lowry method (Francis, J. A., et al., Helv. Chim. Acta 87 317-326 (2004)). […] The optical density of resulting solutions was read at 700 nm using a UV spectrophotometer.
structure (smiles),measurement,setting,value
"Oc1cc(O)c2cc(O)c(-c3cc(O)c(O)c(O)c3)[o+]c2c1 [Compound 6, delphinidin]","effect on insulin secretion, result in words",4 mM glucose,not significant
same,"effect on insulin secretion, result in words",10 mM glucose,did not show glucose-induced insulin secretion
